From doi:10.1101/2025.01.09.632087
Results are given in words; binding and its absence hold for the method and conditions named. Binding seen in cells or lysates may run through a third protein. Some results given as binding are weak or reduced against the parent protein; the word gives no strength. Tags and fused reporters may be left off the sequences shown.

T1: wt FICD with a C-terminal FLAG(3x)-tag (FICD-FLAG) (human) (UniProt Q9BVA6)
T1 sequence: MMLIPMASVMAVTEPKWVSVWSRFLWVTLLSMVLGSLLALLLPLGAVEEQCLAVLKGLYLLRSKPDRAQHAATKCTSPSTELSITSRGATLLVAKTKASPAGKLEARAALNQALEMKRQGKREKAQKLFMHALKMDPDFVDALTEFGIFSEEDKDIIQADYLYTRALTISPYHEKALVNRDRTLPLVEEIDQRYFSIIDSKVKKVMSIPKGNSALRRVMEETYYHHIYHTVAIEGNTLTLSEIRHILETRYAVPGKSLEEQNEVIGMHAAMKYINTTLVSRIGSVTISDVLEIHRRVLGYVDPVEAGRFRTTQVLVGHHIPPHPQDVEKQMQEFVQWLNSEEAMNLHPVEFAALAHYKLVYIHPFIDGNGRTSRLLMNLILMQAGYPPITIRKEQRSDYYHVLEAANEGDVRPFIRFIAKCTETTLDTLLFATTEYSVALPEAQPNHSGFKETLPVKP

T2: full-length PLD3 with a C-terminal 3xFLAG-tag (PLD3-FLAG) (human) (UniProt Q8IV08)
T2 sequence: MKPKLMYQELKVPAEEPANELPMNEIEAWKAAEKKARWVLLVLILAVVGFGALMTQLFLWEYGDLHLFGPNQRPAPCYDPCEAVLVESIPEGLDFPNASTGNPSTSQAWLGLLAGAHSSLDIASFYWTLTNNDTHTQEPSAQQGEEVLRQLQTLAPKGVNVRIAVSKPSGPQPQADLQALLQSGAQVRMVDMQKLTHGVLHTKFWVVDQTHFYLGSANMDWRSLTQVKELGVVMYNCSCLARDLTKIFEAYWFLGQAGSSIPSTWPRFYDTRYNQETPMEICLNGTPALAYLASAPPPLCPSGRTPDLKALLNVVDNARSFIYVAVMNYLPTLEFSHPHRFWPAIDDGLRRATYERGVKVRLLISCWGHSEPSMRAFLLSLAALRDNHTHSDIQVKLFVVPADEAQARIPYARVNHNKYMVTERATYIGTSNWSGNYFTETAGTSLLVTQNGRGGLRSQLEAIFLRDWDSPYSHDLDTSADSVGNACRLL

B1: wt PLD3 (without an affinity tag) (enzyme, UniProt Q8IV08 1-490)
chain: T2 sequence
B2: wt FICD (protein adenylyltransferase FICD, without affinity tag) (enzyme, UniProt Q9BVA6 1-458)
chain: T1 sequence

Assays:
[1] = target: T1, wt FICD with a C-terminal FLAG(3x)-tag (FICD-FLAG) (human); experiment: co-IP
[2] = target: T2, full-length PLD3 with a C-terminal 3xFLAG-tag (PLD3-FLAG) (human); experiment: co-IP

Binder | binding [1] | binding [2]
B1 | binds | –
B2 | – | binds
